Measured data: PubChem BioAssay AID1259308 (NCATS, 2017)

Test: 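Candidate targets for better recombinant protein yield in mammalian cells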 (primary screen)
Cell system: human HEK293 embryonic kidney cells stably expressing firefly luciferase (HEK-CMV-Luc2-Hygro)
Knock-down reagent: single siRNA against human genes, 0.8 pmol siRNA per well
Duration: 72 h
Measured: 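Luciferase light (ONE-Glo) measured on one replicate plate set and viability (CellTiter-Glo) on the other, scaled to a negative control siRNA, with robust z-scores and luciferase per cell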
Scale: total luciferase, z-score and total luciferase, % of control: higher = more reporter protein produced
Call rule: 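Active when the median/MAD z-score for overall luciferase is greater than 3; a gene was taken forward for validation with new siRNAs if at least two of its three siRNAs passed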
Calls: active = raised luciferase; inactive = no rise
Here is an unselected part of about 59,000 deposited reagents. About 1,510 of them (2.6%) count as active. 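Calls use total luciferase alone and ignore viability, so some active siRNAs may act by altering cell number.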 The numbers tell different reagents against one gene apart. Not all columns of the deposit are shown.

GIGYF2 (GeneID 26058) #1 → total luciferase, z-score: -1.33; total luciferase, % of control: 55.5; outcome: inactive
GIGYF2 (GeneID 26058) #2 → total luciferase, z-score: 0.0502; total luciferase, % of control: 82.9; outcome: inactive
GIGYF2 (GeneID 26058) #3 → total luciferase, z-score: 0.951; total luciferase, % of control: 101; outcome: inactive
SGK2 (GeneID 10110) #1 → total luciferase, z-score: -1.9; total luciferase, % of control: 44; outcome: inactive
SGK2 (GeneID 10110) #2 → total luciferase, z-score: 0.962; total luciferase, % of control: 101; outcome: inactive
SGK2 (GeneID 10110) #3 → total luciferase, z-score: 0.732; total luciferase, % of control: 96.5; outcome: inactive
HELZ2 (GeneID 85441) #1 → total luciferase, z-score: -0.25; total luciferase, % of control: 76.9; outcome: inactive
HELZ2 (GeneID 85441) #2 → total luciferase, z-score: -1.4; total luciferase, % of control: 54; outcome: inactive
HELZ2 (GeneID 85441) #3 → total luciferase, z-score: -0.58; total luciferase, % of control: 70.4; outcome: inactive
ZNF714 (GeneID 148206) #1 → total luciferase, z-score: 0.0374; total luciferase, % of control: 82.6; outcome: inactive
ZNF714 (GeneID 148206) #2 → total luciferase, z-score: 3.13; total luciferase, % of control: 144; outcome: active
ZNF714 (GeneID 148206) #3 → total luciferase, z-score: 0.0169; total luciferase, % of control: 82.2; outcome: inactive
CPA6 (GeneID 57094) #1 → total luciferase, z-score: 0.0448; total luciferase, % of control: 82.8; outcome: inactive
CPA6 (GeneID 57094) #2 → total luciferase, z-score: -0.202; total luciferase, % of control: 77.9; outcome: inactive
CPA6 (GeneID 57094) #3 → total luciferase, z-score: 2.72; total luciferase, % of control: 136; outcome: inactive
ZNF521 (GeneID 25925) #1 → total luciferase, z-score: -0.623; total luciferase, % of control: 69.5; outcome: inactive
ZNF521 (GeneID 25925) #2 → total luciferase, z-score: 0.864; total luciferase, % of control: 99.1; outcome: inactive
ZNF521 (GeneID 25925) #3 → total luciferase, z-score: 1.3; total luciferase, % of control: 108; outcome: inactive
MSX2 (GeneID 4488) #1 → total luciferase, z-score: 2.69; total luciferase, % of control: 135; outcome: inactive
MSX2 (GeneID 4488) #2 → total luciferase, z-score: 0.43; total luciferase, % of control: 90.4; outcome: inactive
MSX2 (GeneID 4488) #3 → total luciferase, z-score: 0.0228; total luciferase, % of control: 82.3; outcome: inactive

3 entries from above, sorted by “total luciferase, % of control”, descending:
ZNF714 (GeneID 148206) #1 → total luciferase, z-score: 0.0374; total luciferase, % of control: 82.6; outcome: inactive
HELZ2 (GeneID 85441) #3 → total luciferase, z-score: -0.58; total luciferase, % of control: 70.4; outcome: inactive
HELZ2 (GeneID 85441) #2 → total luciferase, z-score: -1.4; total luciferase, % of control: 54; outcome: inactive
